From PubChem BioAssay AID602405 (Broad Institute, 2012)
The campaign covered roughly 360,000 compounds. About 350 (0.097%) were called active. The shares of active, inactive and inconclusive entries below differ from those in the screen. Rule as the data show it: active = inhibition above about 16% (passing the limit was not always enough); inconclusive = no clear call, values can overlap the other calls; inactive = below that.

Each compound was assayed on UDP-N-acetylbacillosamine N-acetyltransferase PglD (Campylobacter jejuni) (assay: blockers of PglD enzyme activity – biochemical, DTNB colorimetric, single point, primary screen (AID 602405)). Settings: purified PglD enzyme, DTNB colorimetric CoA detection; at 12.5 µM; stronger effect = higher value.

Compound | inhibition
O=C(NCCc1ccccc1)C1CCN(C2CCN(Cc3ccco3)CC2)CC1 | inconclusive: 12.6%
CCCc1cc(C(N)=O)c(NC(=O)c2ccoc2C)s1 | inactive: -4.3%
